Reference: the supplement of paper PMC3682954
Several values for one entry are separate records, joined by “and”; a condition that tells them apart may be missing. Identical values can stand only once. Counter-ions that a name gives are not always drawn. ± gives the standard deviation of the averaged measurements. The list shows a part of the results. Repeats are few or missing, and single values can be far off.

Tested on: RAW 264.7
Assay: HMGB1-induced TNF-alpha production relative to HMGB1-stimulated control; higher = more TNF-alpha secretion (less inhibition)
Settings: stimulus: HMGB1 5 ug/ml, 18 h
[1] = compound concentration: 1 ug/ml

| SMILES | HMGB1-induced TNF-alpha production (compound concentration: 3 uM) | HMGB1-induced TNF-alpha production [1] [%] |
| --- | --- | --- |
| C[C@H](N)CN1CCc2ccc(Br)cc21 [VER-3323 hemifumarate salt] | 111% | – |
| CN1[C@@H]2CC[C@H]1C[C@@H](OC(=O)[C@H](CO)c1ccccc1)C2 [L-Hyoscyamine] | 76.5% | – |
| CN1[C@@H]2CC[C@H]1C[C@@H](OC(=O)[C@H](CO)c1ccccc1)C2 | 100% | – |
| CN1[C@@H]2CC[C@H]1C[C@@H](OC(=O)[C@H](CO)c1ccccc1)C2 [Hyoscyamine (L)] | 104% | – |
| Cc1ccc(-c2nc3ccc(C)cn3c2CC(=O)N(C)C)cc1 | 108% | – |
| O=[N+]([O-])c1cc(O)c(O)c([N+](=O)[O-])c1 [3,5-Dinitrocatechol] | 107% | – |
| CN[C@@H]1C[C@@H](c2ccc(Cl)c(Cl)c2)c2ccccc21 [Indatraline hydrochloride] | 110% | – |
| C[C@H]1O[C@H](O[C@H]2[C@H](O)[C@@H](O)[C@@H](O)[C@H](O)[C@@H]2O)[C@@H](N)C[C@@H]1NC(=N)C(=O)O [Kasugamycin] | 101% | – |
| O=C1CN=C(c2ccccc2Cl)c2cc([N+](=O)[O-])ccc2N1 | 80.6% | – |
| CC12CCC3C(CCC4=C(O)C(=O)CCC43C)C1CCC2=O (stereo unspecified) [4-Androsten-4-ol-3,17-dione] | 96.5% | – |
| Cc1cc(O)ccc1Cl | 86.8% | – |
| C[C@@H]1CC[C@@]2(OC1)O[C@H]1[C@@H](O)[C@H]3[C@@H]4CC[C@H]5C[C@@H](O[C@@H]6O[C@H](CO)[C@H](O[C@@H]7O[C@H](CO)[C@@H](O)[C@H](O[C@@H]8OC[C@@H](O)[C@H](O)[C@H]8O)[C@H]7O[C@@H]7O[C@H](CO)[C@H](O)[C@H](O[C@@H]8O[C@H](CO)[C@@H](O)[C@H](O)[C@H]8O)[C@H]7O)[C@H](O)[C@H]6O)[C@H](O)C[C@]5(C)[C@H]4CC[C@]3(C)[C@H]1[C@@H]2C [Digitonin] | – | 94 |
| C=C(C)[C@H]1CN[C@H](C(=O)O)[C@H]1CC(=O)O | 81% | – |
| C=C(C)[C@H]1CN[C@H](C(=O)O)[C@H]1CC(=O)O [Kainic acid] | 115% | – |
| c1ccc2c(N3CCNCC3)cccc2c1 [1-(1-Naphthyl)piperazine hydrochloride] | 98.3% | – |
| CC[C@H]1CN2CC[C@H]1C[C@@H]2[C@@H](O)c1ccnc2ccc(OC)cc12 | 94.8% | – |
| CC[C@H]1CN2CC[C@H]1C[C@@H]2[C@@H](O)c1ccnc2ccc(OC)cc12 [Hydroquinidine] | – | 55.6 |
| CCCN(CCC)CCc1c[nH]c2ccc(C(N)=O)cc12 [N,N-Dipropyl-5-carboxamidotryptamine maleate] | 89.1% | – |
| COc1ccc2c(c1)c(CCN1CCOCC1)c(C)n2C(=O)c1cccc(Cl)c1Cl | 110% | – |
| COc1ccc(CN2CCNCC2)c(OC)c1OC [Trimetazidine dihydrochloride] | 56.8% | – |
| COc1ccc(CN2CCNCC2)c(OC)c1OC | 83.1% | – |
| C[C@]12CC[C@H]3[C@@H](CCC4=CC(=O)CC[C@@H]43)[C@@H]1CC[C@@H]2O [19-Nortestosterone] | 89.5% | – |
| C[C@]12CC[C@H]3[C@@H](CCC4=CC(=O)CC[C@@H]43)[C@@H]1CC[C@@H]2O [Nandrolone] | 102% | – |

| SMILES | HMGB1-induced TNF-alpha production (compound concentration: 3 uM) | HMGB1-induced TNF-alpha production [1] [%] |
| --- | --- | --- |
| O=C(N[C@H]1CN2CCC1CC2)c1ccc(Cl)cc1 | 105% | – |
| O=[N+]([O-])c1ccc2nc(N3CCNCC3)ccc2c1 [Quipazine, 6-nitro-, maleate] | 105% | – |
| C=C[C@H]1CN2CC[C@H]1C[C@H]2[C@H](OC(=O)OCC)c1ccnc2ccc(OC)cc12 | 87% | – |
| Oc1cccc2cccnc12 | 95.2% | – |
| COc1ccc(CCN)cc1OC [Homoveratrylamine] | 94% | – |
| CC1=C(O)C(=O)C=C2C1=CC=C1[C@@]2(C)CC[C@@]2(C)[C@@H]3C[C@](C)(C(=O)O)CC[C@]3(C)CC[C@]12C | -4.18% | – |
| CC[C@@H](C)C(=O)O[C@H]1[C@H](O)[C@H]2[C@@H](CN3C[C@@H](C)CC[C@H]3[C@@]2(C)O)[C@@H]2C[C@]34O[C@]5(O)[C@@H](OC(=O)[C@](C)(O)[C@@H](C)O)CC[C@@]3(C)[C@@H]5[C@@H](OC(C)=O)[C@@H](OC(C)=O)[C@H]4[C@@]21O (stereo in doubt) | 106% | – |
| C[N+](C)(C)CC#CCOC(=O)Nc1cccc(Cl)c1 | 80.9% | – |
| CCC(C)C1O[C@]2(C=C[C@@H]1C)C[C@@H]1CC(C/C=C(\C)[C@@H](OC3C[C@H](OC)[C@@H](OC4C[C@H](OC)[C@@H](O)[C@H](C)O4)[C@H](C)O3)[C@@H](C)/C=C/C=C3\COC4[C@H](O)C(C)=CC(C(=O)O1)[C@]34O)O2 (stereo partly specified) [Avermectin B1a] | 77.5% | – |
| CN1C[C@@H](NS(=O)(=O)N(C)C)C[C@@H]2c3cccc4c3c(cn4C)C[C@H]21 [Mesulergine] | 97.3% | – |
| Oc1ccc2c3c1O[C@H]1c4[nH]c5c(c4C[C@@]4(O)[C@@H](C2)N(CC2CC2)CC[C@]314)C[C@@]1(O)[C@H]2Cc3ccc(O)c4c3[C@@]1(CCN2CC1CC1)[C@H]5O4 [nor-Binaltorphimine dihydrochloride] | 111% | – |
| OC1CCCCC1N1CCC(c2ccccc2)CC1 (racemic) [(±)-Vesamicol hydrochloride] | 111% | – |
| CCCN1C[C@H](CSC)C[C@@H]2c3cccc4[nH]cc(c34)C[C@H]21 | 80.4% and 59.8% | – |
| CCCN1C[C@H](CSC)C[C@@H]2c3cccc4[nH]cc(c34)C[C@H]21 [Pergolide] | 107% | – |
| CCCN1C[C@H](CSC)C[C@@H]2c3cccc4[nH]cc(c34)C[C@H]21 [Pergolide methanesulfonate] | 110% | – |
| CCCN1C[C@H](CSC)C[C@@H]2c3cccc4[nH]cc(c34)C[C@H]21 [Pergolide mesylate] | 73.6% | 55.8 |
| CN1CC[C@]23CCCC[C@H]2[C@H]1Cc1ccc(O)cc13 | 112% | – |
| CCCCc1ccc(C(=O)O)nc1 [Fusaric acid] | 86.4% | – |
| CCCCc1ccc(C(=O)O)nc1 [Fusaric acid ; 5-butylpicolinic acid] | – | 57 |
| N.N.[Cl][Pt][Cl] | 112 ± 9.9% | – |
| N.N.[Cl][Pt][Cl] [Cisplatin] | 125% | – |
| C=C(C)[C@@H]1[C@H]2OC(=O)[C@@H]1[C@]1(O)C[C@H]3O[C@]34C(=O)O[C@H]2[C@]14C.CC(C)(O)[C@@H]1[C@H]2OC(=O)[C@@H]1[C@]1(O)C[C@H]3O[C@]34C(=O)O[C@H]2[C@]14C [Picrotin - Picrotoxinin] | 102% | – |
